Assay results reported in PMC9682993.
No constants are given. Whether binding was seen depends on the method and setting. Binding seen in cells or lysates may run through a third protein. Some results given as binding are weak or reduced against the parent protein; the word gives no strength.

Chains of the proteins cited; added tags and fusions are not shown.
UniProt P32121: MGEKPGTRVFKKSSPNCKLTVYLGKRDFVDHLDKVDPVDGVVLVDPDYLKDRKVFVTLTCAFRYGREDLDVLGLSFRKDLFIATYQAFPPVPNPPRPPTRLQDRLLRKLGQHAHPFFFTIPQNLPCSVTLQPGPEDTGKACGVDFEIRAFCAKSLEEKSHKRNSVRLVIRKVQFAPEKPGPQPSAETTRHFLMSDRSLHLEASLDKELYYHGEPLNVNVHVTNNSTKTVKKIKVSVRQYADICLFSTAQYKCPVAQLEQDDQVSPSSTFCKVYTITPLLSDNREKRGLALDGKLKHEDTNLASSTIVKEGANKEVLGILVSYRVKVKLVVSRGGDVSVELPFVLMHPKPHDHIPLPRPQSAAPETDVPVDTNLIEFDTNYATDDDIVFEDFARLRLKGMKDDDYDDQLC

Tests used:
[1] = molecular target: T1, chemokine receptor CCR1 (UniProt P32246); test: co-IP; A549 cells cotransfected with CCR1 and Gαi or β-arrestin 2 plasmids, with or without CCL5 protein; Pierce classic magnetic IP/co-IP kit, lysate with the corresponding antibody overnight at 4°C, protein A/G beads, Western blot; precipitating antibody not named
T1 sequence: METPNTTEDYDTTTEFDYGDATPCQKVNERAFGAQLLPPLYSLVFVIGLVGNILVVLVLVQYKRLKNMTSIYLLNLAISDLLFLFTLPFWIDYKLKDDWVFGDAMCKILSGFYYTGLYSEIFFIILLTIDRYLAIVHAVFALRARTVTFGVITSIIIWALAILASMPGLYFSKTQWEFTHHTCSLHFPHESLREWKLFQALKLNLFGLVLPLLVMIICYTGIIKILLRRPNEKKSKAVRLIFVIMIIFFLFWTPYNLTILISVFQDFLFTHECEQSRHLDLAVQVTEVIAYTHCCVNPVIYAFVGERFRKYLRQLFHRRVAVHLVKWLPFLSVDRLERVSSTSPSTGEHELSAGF

[2] = molecular target: T1, chemokine receptor CCR1; test: co-IP; as a1, cells stimulated with CCL5 protein (CCL5-activated CCR1)

binding [1]: binds
binding [2]: binds weakly
Substance: β-arrestin 2 (from UniProt P32121 1-409)
